# Data from PubChem BioAssay AID330 (DTP/NCI, 2004).
# The list does not hold the whole screen: it gathers tests that were run many times, whatever their T/C, doses with no T/C, and many T/C values between a quarter and a half above the control. Further doses and runs are listed elsewhere. T/C gives the treated animals as a percentage of the vehicle group. Some entries give survivors of the animals treated and no T/C: the source files T/C as zero there, which appears to mark a toxic dose or a test without result, not a measured value. Some survivor counts are full or nearly so, which does not show that the dose was tolerated: survival well below the control is almost never listed, so the zero probably covers shortened survival too. Survivors were counted at the toxicity check, usually on the fifth day, unless a day is given; later deaths do not show. Schedules are NCI's codes, taken here to give the interval after Q, in days (D) or hours (H), and the number of doses after X. Some doses were run more than once; the results are listed from low to high. Where survival is the endpoint, this PubChem deposit counts one and a half times the control or more as active, and values a quarter to a half above the control carry no call in these data; other NCI protocols may use other cut-offs. Some T/C values are followed by the survivors on the day toxicity was checked, most often the fifth; where none is given, no animal had died by that day.
# System: P388 leukemia ip, CD2F1 mice, survival T/C
# Experiment: NCI In Vivo Anticancer Drug Screen. Data for tumor model P388 Leukemia (intraperitoneal) in CD2F1 (CDF1) mice
# Conditions: T/C endpoint: median survival time, higher T/C = longer survival
# [1] = dose: 200.0 mg/kg/injection, schedule: Q01DX005 (ip), vehicle: saline with Tween-80
# [2] = dose: 50.0 mg/kg/injection, schedule: Q01DX005 (ip), vehicle: saline with Tween-80
# [3] = dose: 100.0 mg/kg/injection, schedule: Q01DX005 (ip), vehicle: saline with Tween-80
# [4] = dose: 240.0 mg/kg/injection, schedule: Q01DX005 (ip), vehicle: saline
# [5] = dose: 200.0 mg/kg/injection, schedule: Q01DX009 (ip), vehicle: Klucel (hydroxypropylcellulose) (HPC)
# [6] = dose: 200.0 mg/kg/injection, schedule: Q01DX005 (ip), vehicle: saline
# [7] = dose: 400.0 mg/kg/injection, schedule: Q04DX002 (ip), vehicle: saline
smiles,measurement,setting,value
CCN(CC)CCNc1cccc2c(C)cc(=O)[nH]c12,survivor count,[1],3 of 5
COc1ccc2nc(N/N=C/c3ccccn3)cc(C)c2c1,survivor count,[2],6 of 6
same,T/C,[3],125 % of control [5 of 6 alive]
same,survivor count,[3],1 of 6
same,survivor count,[1],0 of 6 and 1 of 6
CC(=O)c1cc2c(cc1C(C)C)CC[C@H]1[C@](C)(C#N)CCC[C@]21C,survivor count,"dose: 25.0 mg/kg/injection, schedule: Q01DX009 (ip), vehicle: saline sonified",6 of 6
CC1=C(O)C(=O)[C@@H]2O[C@@H]2C1=O,T/C,"dose: 3.0 mg/kg/injection, schedule: Q01DX009 (ip), vehicle: saline",130 % of control
same,T/C,"dose: 6.0 mg/kg/injection, schedule: Q01DX009 (ip), vehicle: saline",128 % of control
same,T/C,"dose: 12.0 mg/kg/injection, schedule: Q01DX007 (ip), vehicle: saline",130 % of control
same,T/C,"dose: 12.0 mg/kg/injection, schedule: Q01DX009 (ip), vehicle: saline",139 % of control
same,survivor count,"dose: 24.0 mg/kg/injection, schedule: Q01DX009 (ip), vehicle: saline",5 of 6
NC1(c2ccccc2)C2CC3CC(C2)CC1C3 (configuration not stated),survivor count,"dose: 200.0 mg/kg/injection, schedule: Q04DX003 (ip), vehicle: Klucel (hydroxypropylcellulose) (HPC)",1 of 6
same,survivor count,"dose: 400.0 mg/kg/injection, schedule: Q04DX003 (ip), vehicle: Klucel (hydroxypropylcellulose) (HPC)",0 of 6
CN(C)c1ccc2nc3ccc(=N)cc-3sc2c1,survivor count,[4],0 of 6
Cc1cc(N(CCCl)CCCl)ccc1C=Nc1ccc(F)cc1,T/C,"dose: 100.0 mg/kg/injection, schedule: Q01DX009 (ip), vehicle: saline with Tween-80",140 % of control
same,T/C,"dose: 200.0 mg/kg/injection, schedule: Q04DX003 (ip), vehicle: saline with Tween-80",127 % of control
COc1ccc2nc(NC(=O)Nc3ccc(C)c(NC(=O)Nc4nc5ccc(OC)cc5s4)c3)sc2c1,survivor count,[5],6 of 6
Cn1c(N)c(C(=O)c2ccccc2)c(=O)n(C)c1=O,survivor count,"dose: 50.0 mg/kg/injection, schedule: Q01DX009 (ip), vehicle: Klucel (hydroxypropylcellulose) (HPC)",6 of 6
same,survivor count,"dose: 100.0 mg/kg/injection, schedule: Q01DX009 (ip), vehicle: Klucel (hydroxypropylcellulose) (HPC)",2 of 6
same,survivor count,[5],1 of 6
CCCCCCOC(CN(C)C)C(Cl)(Cl)Cl (configuration not stated),T/C,"dose: 200.0 mg/kg/injection, schedule: Q01DX009 (ip), vehicle: suspension in saline",133 % of control [5 of 6 alive]
CN(C)N1C(=O)c2c(Cl)c(Cl)c(Cl)c(Cl)c2C1=O,survivor count,[1],6 of 6
c1cc[c]([Sn]2([c]3ccccc3)[O]CCNCC[O]2)cc1,T/C,"dose: 12.5 mg/kg/injection, schedule: Q01DX005 (ip), vehicle: saline",140 % of control
same,T/C,"dose: 50.0 mg/kg/injection, schedule: Q01DX005 (ip), vehicle: saline",145 % of control
same,survivor count,[6],0 of 6
CC(=O)Cc1nc2ccccc2[nH]c1=O,survivor count,"dose: 60.0 mg/kg/injection, schedule: Q01DX005 (ip), vehicle: Klucel (hydroxypropylcellulose) (HPC)",6 of 6
same,survivor count,"dose: 120.0 mg/kg/injection, schedule: Q01DX005 (ip), vehicle: Klucel (hydroxypropylcellulose) (HPC)",6 of 6
CC(=O)OC1CSC(OC(C)=O)C(OC(C)=O)C1[N+](=O)[O-] (configuration not stated),survivor count,[7],5 of 6
CNC(=O)OCc1ccc(NCCN(C)C)c2c(=O)c3cc(O)ccc3oc12,survivor count,"dose: 6.25 mg/kg/injection, schedule: Q01DX005 (ip), vehicle: Klucel (hydroxypropylcellulose) (HPC)",3 of 6
same,survivor count,"dose: 12.5 mg/kg/injection, schedule: Q01DX005 (ip), vehicle: Klucel (hydroxypropylcellulose) (HPC)",1 of 6
same,survivor count,"dose: 25.0 mg/kg/injection, schedule: Q01DX005 (ip), vehicle: Klucel (hydroxypropylcellulose) (HPC)",0 of 6
same,survivor count,"dose: 50.0 mg/kg/injection, schedule: Q01DX005 (ip), vehicle: Klucel (hydroxypropylcellulose) (HPC)",0 of 6
O=C(CN1CCN(CCO)CC1)N1c2ccccc2Sc2ccc(C(F)(F)F)cc21,survivor count,[7],0 of 6
Cc1ccc(C2=C(C#N)C(c3ccccc3)C(C#N)=C(N)O2)cc1 (configuration not stated),survivor count,"dose: 200.0 mg/kg/injection, schedule: Q01DX005 (ip), vehicle: Klucel (hydroxypropylcellulose) (HPC)",5 of 5
CN(C)c1ccc(C(c2cc3c(cc2O)OCO3)N2CCCCC2)cc1 (configuration not stated),survivor count,"dose: 240.0 mg/kg/injection, schedule: Q01DX005 (ip), vehicle: saline with Tween-80",3 of 6
[Cl][Mn][Cl].[NH-]NP(=S)(N[NH-])Oc1ccccc1.[NH-]NP(=S)(N[NH-])Oc1ccccc1,survivor count,"dose: 100.0 mg/kg/injection, schedule: Q01DX005 (ip), vehicle: saline",0 of 5
same,survivor count,[6],0 of 5
CCCCC(=O)N(c1ccc(Nc2c3ccccc3nc3cc([N+](=O)[O-])ccc23)cc1)S(C)(=O)=O,T/C,"dose: 0.18 mg/kg/injection, schedule: Q01DX009 (ip), vehicle: saline with Tween-80",130 % of control
same,T/C,"dose: 0.27 mg/kg/injection, schedule: Q01DX009 (ip), vehicle: saline with Tween-80",132 % of control
same,T/C,"dose: 0.4 mg/kg/injection, schedule: Q01DX009 (ip), vehicle: saline with Tween-80",134 % of control
same,T/C,"dose: 0.6 mg/kg/injection, schedule: Q01DX009 (ip), vehicle: saline with Tween-80",138 % of control
same,T/C,"dose: 1.25 mg/kg/injection, schedule: Q01DX009 (ip), vehicle: saline with Tween-80",145 % of control
same,T/C,"dose: 1.5 mg/kg/injection, schedule: Q04DX003 (ip), vehicle: saline with Tween-80",135 % of control
same,survivor count,"dose: 18.7 mg/kg/injection, schedule: Q01DX009 (ip), vehicle: saline with Tween-80",6 of 6
same,survivor count,"dose: 37.5 mg/kg/injection, schedule: Q01DX009 (ip), vehicle: saline with Tween-80",6 of 6
same,survivor count,"dose: 75.0 mg/kg/injection, schedule: Q01DX009 (ip), vehicle: saline with Tween-80",6 of 6
same,survivor count,"dose: 83.3 mg/kg/injection, schedule: Q04DX003 (ip), vehicle: water",8 of 8
Nc1nc(-c2cc(-c3cccs3)nc(N)n2)cc(-c2cccs2)n1,survivor count,[4],3 of 6
CCCCN(CCCC)CC(O)c1c(OC)ccc2ccccc12 (configuration not stated),survivor count,[3],0 of 5
same,survivor count,[1],0 of 5
N#CN(Cc1ccccc1)Cc1ccccc1.[I][Sn]([c]1ccccc1)([c]1ccccc1)[c]1ccccc1,survivor count,"dose: 12.5 mg/kg/injection, schedule: Q01DX005 (ip), vehicle: saline with Tween-80",2 of 6
same,survivor count,"dose: 25.0 mg/kg/injection, schedule: Q01DX005 (ip), vehicle: saline with Tween-80",0 of 6
same,survivor count,[2],3 of 6
same,survivor count,[3],0 of 6
same,survivor count,[1],0 of 6
COc1ccccc1N=Nc1cccc[c]1[Hg][Cl],T/C,"dose: 18.0 mg/kg/injection, schedule: Q01DX009 (ip), vehicle: saline",130 % of control
same,T/C,"dose: 36.0 mg/kg/injection, schedule: Q01DX009 (ip), vehicle: saline",133 % of control
same,survivor count,"dose: 50.0 mg/kg/injection, schedule: Q01DX009 (ip), vehicle: saline",1 of 6
same,survivor count,"dose: 100.0 mg/kg/injection, schedule: Q01DX009 (ip), vehicle: saline",0 of 6
same,survivor count,"dose: 200.0 mg/kg/injection, schedule: Q01DX009 (ip), vehicle: saline",2 of 6
CCOC(=O)/C=C(\C)NC1CC(OC2CC(O)(C(C)=O)Cc3c(O)c4c(c(O)c32)C(=O)c2c(OC)cccc2C4=O)OC(C)C1O (configuration not stated),T/C,"dose: 3.13 mg/kg/injection, schedule: Q04DX003 (ip), vehicle: distilled water + Tween-80",131 % of control
same,T/C,"dose: 25.0 mg/kg/injection, schedule: Q04DX003 (ip), vehicle: distilled water + Tween-80",125 and 131 % of control
same,T/C,"dose: 50.0 mg/kg/injection, schedule: Q04DX003 (ip), vehicle: distilled water + Tween-80",144 % of control
same,T/C,"dose: 100.0 mg/kg/injection, schedule: Q04DX003 (ip), vehicle: distilled water + Tween-80",147 % of control
same,survivor count,"dose: 200.0 mg/kg/injection, schedule: Q04DX003 (ip), vehicle: distilled water + Tween-80",6 of 6 on day 9
S=C(NNc1nnc(-c2ccccc2)c(-c2ccccc2)n1)Nc1ccccc1,survivor count,[3],6 of 6
same,survivor count,[1],6 of 6
